Measured values: patent US20070248536A1
No constants are given. Whether binding was seen depends on the method and setting.

The chains behind the UniProt entries cited, without tags or fusion partners. Residues count along the entry.
UniProt P02769, residues 25-607: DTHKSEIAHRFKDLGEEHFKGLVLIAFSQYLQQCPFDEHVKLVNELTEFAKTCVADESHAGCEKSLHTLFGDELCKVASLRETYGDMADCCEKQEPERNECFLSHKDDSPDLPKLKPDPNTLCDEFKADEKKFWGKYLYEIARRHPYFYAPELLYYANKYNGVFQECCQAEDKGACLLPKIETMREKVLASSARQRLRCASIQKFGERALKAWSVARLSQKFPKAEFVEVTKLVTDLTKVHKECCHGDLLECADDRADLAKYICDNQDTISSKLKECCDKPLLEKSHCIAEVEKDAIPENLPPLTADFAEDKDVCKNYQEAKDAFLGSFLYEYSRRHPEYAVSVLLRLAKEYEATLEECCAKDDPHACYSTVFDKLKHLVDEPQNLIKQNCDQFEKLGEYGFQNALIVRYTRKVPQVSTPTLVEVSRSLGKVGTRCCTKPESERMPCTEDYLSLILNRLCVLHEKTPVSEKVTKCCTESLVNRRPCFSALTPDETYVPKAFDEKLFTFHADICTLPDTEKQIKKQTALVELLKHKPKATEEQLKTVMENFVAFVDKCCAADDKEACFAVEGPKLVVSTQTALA

Biological target: BSA (bovine) (UniProt P02769)
Assay: condition: 1 ml of 5 mg/ml BSA mixed with 0.5 ml proNGF applied (not printed on the sheet); SDS PAGE of fractions of the SPC7-E9 affinity column, BSA/proNGF mixture applied

binding: no binding
B1: Affilin variation SPC7-E9 (designed binder)
chain: MGFICFLEDRAFQGRSYACDTDCPNLQPYFSRCNSISVLSGCWMIYERPNYQGHQYFLRRGEYPDYQQWMGLSDSIRSCCLIPPHSGAYRMKIYDRDELRGQMSELTDDCLSVQDRFHLTEIHSLNVLEGSWILYEMPNYRGRQYLLRPGEYRRFLDWGAPNAKVGSLRRVMDLYLEHHHHHH
